Experimental data from patent publication US4234571 (dated 1980).

Tests used:
[1] = general procedure: Boc solid-phase peptide synthesis; benzhydrylamino-polystyrene-divinylbenzene resin; DCC/HBT; settings: whole synthesis, scale 0.8 mmol, HF salt
[2] = general procedure: Boc solid-phase peptide synthesis; Boc-Pro-O-Resin (chloromethyl-polystyrene/1% DVB); DCC/HBT; settings: whole synthesis, scale 1.4 mmol (half of resin carried on), acetic acid addition salt

Substance	crude mass [1] [g]	crude mass [2] [g]
(pyro)-Glu-His-Trp-Ser-Tyr-3-(2-naphthyl)-D-alanyl-Leu-Arg-Pro-Gly-NH2	0.8	
pyroglutamyl-histidyl-tryptophyl-seryl-tyrosyl-3-(2-naphthyl)-D-alanyl-leucyl-arginyl-proline ethylamide		1.39
